Patent US9061009B2, “Mixed lineage kinases and metabolic disorders” (University of Massachusetts, priority 2007, dated 2015)
At least one compound was matched to its structure with a doubt left.

System: JNK
Assay: FFA-stimulated JNK activation in MEF (in vitro kinase assay with cJun / immunoblot)
Format: cell-based, mouse
Settings: for JNK activation: 16 hours
[1] = wild-type MEF, 0.5 mM, immunoblot

| Structure (SMILES) | JNK activation (MEF, 0.5 mM FFA) | JNK activation [1] | JNK activation (in vitro kinase assay using [γ-32P]ATP and cJun) (MEF, time course and concentration series) | JNK activation (Mkk4−/− MEF, 0.5 mM) | JNK activation (Mkk4−/− Mkk7−/− MEF, 0.5 mM) | JNK activation (Mkk7−/− MEF, 0.5 mM) |
| --- | --- | --- | --- | --- | --- | --- |
| CCCCC/C=C\C/C=C\CCCCCCCC(=O)O [linoleate] | had no effect |  |  |  |  |  |
| CCCCCCCC/C=C\CCCCCCCC(=O)O [oleate] | had no effect | not |  |  |  |  |
| CCCCCCCCCCCCCCCC(=O)O [palmitate] | resulted in JNK activation | caused increased JNK activation | caused JNK activation in a time- and dose-dependent manner | failed to respond to palmitate with increased JNK activation | failed to exhibit JNK activation | failed to respond to palmitate with increased JNK activation |
